Data as given in paper PMC11770632 (Journal of Medicinal Chemistry, 2024).

Key:
[1] = pH 7.4
DCAF1-WD40 domain = conditions: cited from earlier work
physchem = conditions: pH 7.4, aqueous buffer, kinetic from dmso stock

Which “Solubility and aggregation (DLS) at 200 μM” value [1] does the source give for Cc1cc(=O)c(C(=O)OC(C)C(=O)Nc2nc(-c3ccccc3)cs2)nn1-c1ccccc1 (stereo not drawn) [DR02034] here?
The value was “compromised”.

Which “Stabilization of DCAF1-WD40 domain in DSF” value (DCAF1-WD40 domain) does the source give for NC(=O)C[C@H](NC(=O)c1c[nH]nc1-c1ccc(Cl)cc1F)c1ccc(F)c(Cl)c1 [OICR-8268] here?
Its value is “potently stabilized”.

Which solubility (physchem) does the source give for O=C(Nc1nnc(C(F)(F)F)s1)c1cc(-c2ccccc2)nn1-c1ccccc1 [DR02380] here?
The solubility was at least 200 µM.
